Like-named read-outs stand apart in the source and are kept apart here. Results are given in words; binding and its absence hold for the method and conditions named. In cells and extracts the contact can be indirect. Some results given as binding are weak or reduced against the parent protein; the word gives no strength. For some assays here: Sequences can lack the tags named with a protein.

Amino acid sequences for entries named in this document (tags omitted).
UniProt Q63562: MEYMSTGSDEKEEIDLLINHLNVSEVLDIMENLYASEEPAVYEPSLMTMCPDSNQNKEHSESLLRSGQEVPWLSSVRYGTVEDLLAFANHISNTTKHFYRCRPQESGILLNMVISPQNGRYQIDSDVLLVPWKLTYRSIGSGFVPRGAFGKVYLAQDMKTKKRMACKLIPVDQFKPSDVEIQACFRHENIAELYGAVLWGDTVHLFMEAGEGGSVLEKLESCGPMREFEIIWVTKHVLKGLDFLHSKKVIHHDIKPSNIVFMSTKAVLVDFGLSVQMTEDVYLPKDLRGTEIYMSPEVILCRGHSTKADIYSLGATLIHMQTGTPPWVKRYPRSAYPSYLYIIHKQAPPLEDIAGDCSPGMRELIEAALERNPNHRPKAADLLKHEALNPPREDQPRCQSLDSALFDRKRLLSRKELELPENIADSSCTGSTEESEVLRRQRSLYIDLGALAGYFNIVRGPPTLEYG
UniProt P41279: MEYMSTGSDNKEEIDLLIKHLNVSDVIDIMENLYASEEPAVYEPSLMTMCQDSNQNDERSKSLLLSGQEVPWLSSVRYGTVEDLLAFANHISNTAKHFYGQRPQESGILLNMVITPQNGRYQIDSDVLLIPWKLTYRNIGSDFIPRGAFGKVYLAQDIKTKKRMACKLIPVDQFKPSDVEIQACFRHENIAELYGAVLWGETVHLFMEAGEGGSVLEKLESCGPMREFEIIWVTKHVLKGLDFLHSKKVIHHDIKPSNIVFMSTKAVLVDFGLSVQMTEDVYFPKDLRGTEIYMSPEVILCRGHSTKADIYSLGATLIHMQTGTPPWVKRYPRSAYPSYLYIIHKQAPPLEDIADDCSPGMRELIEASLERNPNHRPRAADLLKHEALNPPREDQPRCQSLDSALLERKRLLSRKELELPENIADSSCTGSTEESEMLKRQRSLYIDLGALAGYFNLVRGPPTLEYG
UniProt P19838: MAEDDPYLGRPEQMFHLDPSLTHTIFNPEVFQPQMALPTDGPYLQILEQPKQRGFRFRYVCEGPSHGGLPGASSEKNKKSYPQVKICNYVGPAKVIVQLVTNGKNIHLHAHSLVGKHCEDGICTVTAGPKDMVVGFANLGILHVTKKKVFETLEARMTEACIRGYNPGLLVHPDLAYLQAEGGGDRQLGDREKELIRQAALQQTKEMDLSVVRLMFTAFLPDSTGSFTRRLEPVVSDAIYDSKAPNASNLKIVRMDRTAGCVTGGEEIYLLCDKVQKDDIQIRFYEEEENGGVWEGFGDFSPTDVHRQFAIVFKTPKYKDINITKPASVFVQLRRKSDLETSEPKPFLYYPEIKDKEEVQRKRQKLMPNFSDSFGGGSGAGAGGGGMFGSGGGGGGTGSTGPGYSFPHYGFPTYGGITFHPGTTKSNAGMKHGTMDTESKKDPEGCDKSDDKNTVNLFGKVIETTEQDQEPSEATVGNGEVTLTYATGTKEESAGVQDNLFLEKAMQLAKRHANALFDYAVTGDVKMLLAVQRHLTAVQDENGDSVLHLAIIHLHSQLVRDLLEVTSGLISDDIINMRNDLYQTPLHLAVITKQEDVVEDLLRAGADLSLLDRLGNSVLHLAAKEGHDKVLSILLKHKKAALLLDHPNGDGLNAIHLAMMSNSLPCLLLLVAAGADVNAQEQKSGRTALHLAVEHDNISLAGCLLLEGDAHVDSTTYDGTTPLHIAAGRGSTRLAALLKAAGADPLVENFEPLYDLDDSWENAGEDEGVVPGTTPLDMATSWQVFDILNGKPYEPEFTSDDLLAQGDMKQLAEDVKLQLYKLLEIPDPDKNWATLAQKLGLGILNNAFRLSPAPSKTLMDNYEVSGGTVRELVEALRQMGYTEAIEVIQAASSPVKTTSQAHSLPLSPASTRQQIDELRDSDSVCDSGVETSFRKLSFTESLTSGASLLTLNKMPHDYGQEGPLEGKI

What all share (test): co-IP
Assay [1] deals with FLAG-TPL-2 (UniProt Q63562).
The target of assay [2] is T1, BCL-3 (UniProt P20749).
T1 sequence: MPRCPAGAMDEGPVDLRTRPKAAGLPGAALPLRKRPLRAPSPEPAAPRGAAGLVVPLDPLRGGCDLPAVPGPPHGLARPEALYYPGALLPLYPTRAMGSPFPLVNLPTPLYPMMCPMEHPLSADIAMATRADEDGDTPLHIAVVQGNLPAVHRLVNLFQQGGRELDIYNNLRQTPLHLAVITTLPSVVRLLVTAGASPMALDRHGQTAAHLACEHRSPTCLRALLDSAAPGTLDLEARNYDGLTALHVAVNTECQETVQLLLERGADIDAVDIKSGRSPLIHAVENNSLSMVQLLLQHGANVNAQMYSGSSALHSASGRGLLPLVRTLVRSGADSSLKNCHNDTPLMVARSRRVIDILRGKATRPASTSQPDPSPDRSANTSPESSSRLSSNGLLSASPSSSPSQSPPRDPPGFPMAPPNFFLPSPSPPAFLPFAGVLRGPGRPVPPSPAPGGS

For assay [3], the target named is T2, BCL-3 (expressed in Nfkb1-/- MEFs) (UniProt P20749).
T2 sequence: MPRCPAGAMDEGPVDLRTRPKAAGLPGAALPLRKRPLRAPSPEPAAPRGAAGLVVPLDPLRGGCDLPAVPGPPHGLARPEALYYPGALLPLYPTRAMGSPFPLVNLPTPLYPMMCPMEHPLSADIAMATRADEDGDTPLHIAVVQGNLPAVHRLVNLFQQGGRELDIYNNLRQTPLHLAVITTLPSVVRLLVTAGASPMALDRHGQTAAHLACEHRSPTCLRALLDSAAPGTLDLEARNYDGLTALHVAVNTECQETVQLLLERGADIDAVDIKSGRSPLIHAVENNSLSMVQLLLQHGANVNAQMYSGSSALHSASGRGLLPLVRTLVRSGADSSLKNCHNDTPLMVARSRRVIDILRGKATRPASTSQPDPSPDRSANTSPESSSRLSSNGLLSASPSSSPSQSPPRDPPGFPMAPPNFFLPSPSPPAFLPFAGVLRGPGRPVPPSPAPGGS

For assay [4], the target named is endogenous TPL-2 (human (endogenous in THP-1)) (UniProt P41279).
In assay [5] the target is FLAG-TPL-2 (UniProt Q63562). This is another data set of the same source.

On to XP-p105 (from UniProt P19838 1-968), for which the binding result in assay [1] was “binds”.
Turning to TPL-2 (from UniProt Q63562 1-467), the binding result in assay [2] is recorded as “binds”.
Turning to “TPL-2 (expressed in Nfkb1-/- MEFs) (from UniProt Q63562 1-467)”, the binding result in assay [3] is on record as “binds”.

B1: endogenous BCL-3 (protein, UniProt P20749 1-454)
chain: MPRCPAGAMDEGPVDLRTRPKAAGLPGAALPLRKRPLRAPSPEPAAPRGAAGLVVPLDPLRGGCDLPAVPGPPHGLARPEALYYPGALLPLYPTRAMGSPFPLVNLPTPLYPMMCPMEHPLSADIAMATRADEDGDTPLHIAVVQGNLPAVHRLVNLFQQGGRELDIYNNLRQTPLHLAVITTLPSVVRLLVTAGASPMALDRHGQTAAHLACEHRSPTCLRALLDSAAPGTLDLEARNYDGLTALHVAVNTECQETVQLLLERGADIDAVDIKSGRSPLIHAVENNSLSMVQLLLQHGANVNAQMYSGSSALHSASGRGLLPLVRTLVRSGADSSLKNCHNDTPLMVARSRRVIDILRGKATRPASTSQPDPSPDRSANTSPESSSRLSSNGLLSASPSSSPSQSPPRDPPGFPMAPPNFFLPSPSPPAFLPFAGVLRGPGRPVPPSPAPGGS
With B1, the binding entry in assay [4] is “binds”.

B2: MYC-BCL-3 (protein, UniProt P20749 1-454)
chain: MPRCPAGAMDEGPVDLRTRPKAAGLPGAALPLRKRPLRAPSPEPAAPRGAAGLVVPLDPLRGGCDLPAVPGPPHGLARPEALYYPGALLPLYPTRAMGSPFPLVNLPTPLYPMMCPMEHPLSADIAMATRADEDGDTPLHIAVVQGNLPAVHRLVNLFQQGGRELDIYNNLRQTPLHLAVITTLPSVVRLLVTAGASPMALDRHGQTAAHLACEHRSPTCLRALLDSAAPGTLDLEARNYDGLTALHVAVNTECQETVQLLLERGADIDAVDIKSGRSPLIHAVENNSLSMVQLLLQHGANVNAQMYSGSSALHSASGRGLLPLVRTLVRSGADSSLKNCHNDTPLMVARSRRVIDILRGKATRPASTSQPDPSPDRSANTSPESSSRLSSNGLLSASPSSSPSQSPPRDPPGFPMAPPNFFLPSPSPPAFLPFAGVLRGPGRPVPPSPAPGGS
Take B2: the binding result in assay [5] was “binds”.

The values are drawn from article doi:10.1101/373209.
